No constants are given. Whether binding was seen depends on the method and setting. Binding seen in cells or lysates may run through a third protein. Some results given as binding are weak or reduced against the parent protein; the word gives no strength.
Target: androgen receptor, ectopically overexpressed in AN3CA cells (UniProt P10275)
Assay: co-IP; AN3CA cells transfected with PWP1/GFP/Neo-AR or the empty vector; immunoprecipitation with anti-AR or control antibody, Western blotting with anti-KDM4B or anti-KDM4A

The chains behind the UniProt entries cited, without tags or fusion partners.
UniProt P10275: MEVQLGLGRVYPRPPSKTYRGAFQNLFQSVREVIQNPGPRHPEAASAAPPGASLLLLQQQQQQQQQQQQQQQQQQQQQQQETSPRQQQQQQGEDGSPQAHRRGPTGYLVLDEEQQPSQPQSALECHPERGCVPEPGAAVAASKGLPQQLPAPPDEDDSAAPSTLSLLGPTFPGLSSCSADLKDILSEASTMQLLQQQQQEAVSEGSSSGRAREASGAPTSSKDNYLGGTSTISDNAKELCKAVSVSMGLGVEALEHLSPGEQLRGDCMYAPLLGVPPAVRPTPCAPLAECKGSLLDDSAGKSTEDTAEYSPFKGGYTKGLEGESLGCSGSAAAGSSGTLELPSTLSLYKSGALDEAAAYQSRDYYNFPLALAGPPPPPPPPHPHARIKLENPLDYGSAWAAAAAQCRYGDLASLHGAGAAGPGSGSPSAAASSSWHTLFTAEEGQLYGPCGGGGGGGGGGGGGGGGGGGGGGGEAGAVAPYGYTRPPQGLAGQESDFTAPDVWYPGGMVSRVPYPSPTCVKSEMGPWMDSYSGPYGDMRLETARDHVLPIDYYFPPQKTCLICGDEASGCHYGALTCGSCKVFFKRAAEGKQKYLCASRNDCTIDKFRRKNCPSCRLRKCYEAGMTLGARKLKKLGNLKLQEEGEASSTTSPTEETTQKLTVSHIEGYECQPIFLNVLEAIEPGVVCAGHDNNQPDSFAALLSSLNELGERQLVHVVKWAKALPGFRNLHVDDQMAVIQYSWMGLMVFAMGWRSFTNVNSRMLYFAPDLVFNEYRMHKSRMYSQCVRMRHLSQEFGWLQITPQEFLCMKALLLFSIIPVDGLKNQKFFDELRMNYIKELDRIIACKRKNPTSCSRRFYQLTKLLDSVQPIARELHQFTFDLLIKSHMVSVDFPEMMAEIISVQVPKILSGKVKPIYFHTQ

binding: binds
B1: KDM4A (protein, UniProt O75164 1-1064)
chain: MASESETLNPSARIMTFYPTMEEFRNFSRYIAYIESQGAHRAGLAKVVPPKEWKPRASYDDIDDLVIPAPIQQLVTGQSGLFTQYNIQKKAMTVREFRKIANSDKYCTPRYSEFEELERKYWKNLTFNPPIYGADVNGTLYEKHVDEWNIGRLRTILDLVEKESGITIEGVNTPYLYFGMWKTSFAWHTEDMDLYSINYLHFGEPKSWYSVPPEHGKRLERLAKGFFPGSAQSCEAFLRHKMTLISPLMLKKYGIPFDKVTQEAGEFMITFPYGYHAGFNHGFNCAESTNFATRRWIEYGKQAVLCSCRKDMVKISMDVFVRKFQPERYKLWKAGKDNTVIDHTLPTPEAAEFLKESELPPRAGNEEECPEEDMEGVEDGEEGDLKTSLAKHRIGTKRHRVCLEIPQEVSQSELFPKEDLSSEQYEMTECPAALAPVRPTHSSVRQVEDGLTFPDYSDSTEVKFEELKNVKLEEEDEEEEQAAAALDLSVNPASVGGRLVFSGSKKKSSSSLGSGSSRDSISSDSETSEPLSCRAQGQTGVLTVHSYAKGDGRVTVGEPCTRKKGSAARSFSERELAEVADEYMFSLEENKKSKGRRQPLSKLPRHHPLVLQECVSDDETSEQLTPEEEAEETEAWAKPLSQLWQNRPPNFEAEKEFNETMAQQAPHCAVCMIFQTYHQVEFGGFNQNCGNASDLAPQKQRTKPLIPEMCFTSTGCSTDINLSTPYLEEDGTSILVSCKKCSVRVHASCYGVPPAKASEDWMCSRCSANALEEDCCLCSLRGGALQRANDDRWVHVSCAVAILEARFVNIAERSPVDVSKIPLPRFKLKCIFCKKRRKRTAGCCVQCSHGRCPTAFHVSCAQAAGVMMQPDDWPFVVFITCFRHKIPNLERAKGALQSITAGQKVISKHKNGRFYQCEVVRLTTETFYEVNFDDGSFSDNLYPEDIVSQDCLQFGPPAEGEVVQVRWTDGQVYGAKFVASHPIQMYQVEFEDGSQLVVKRDDVYTLDEELPKRVKSRLSVASDMRFNEIFTEKEVKQEKKRQRVINSRYREDYIEPALYRAIME

From article PMC4741634
